{"source": "patent US11858878B2", "about": "“Gemini surfactant composition and method for treating subterranean rock” (KING FAHD UNIVERSITY OF PETROLEUM AND MINERALS, priority 2018, dated 2024)", "experiment": "Surface tension measurements by pendant drop method in water (cmc and surface properties)", "type": "physicochemical", "details": "intersection of two lines in plot of surface tension versus concentration", "experimental": "Surface Properties. Surface tensions were identified with the help of pendant drop method at 20° C. using Biolin Scientific Attension instrument. Water was used as a solvent for all surface tension experiments. The reported data points of all surface tension measurements are average equilibrium values. The critical micelle concentration (cmc) was measured from the intersection point of two lines in the plot of surface tension versus concentration.\nSurface Tension Measurements. […] The surface properties can be related to the different chain length, spacer length, spacer rigidity, and to the presence of different counterions in the gemini surfactants.\nThe gemini surfactant ability to lower the surface tension of water (πcmc), highest surface access (rmax) at the interface of air-water, as well as nominal surface area per molecule (Amin) was given in Table 1. The method used to calculate these properties was also given in our previous publication; Hussain S S, Animashaun M A, Kamal M S, Ullah N, Hussein I A, Sultan A S (2016) Synthesis, Characterization and Surface Properties of Amidosulfobetaine Surfactants Bearing Odd-Number Hydrophobic Tail. J Surfactants Deterg 19 (2):413-420, incorporated herein by reference in its entirety.", "note": "At least one structure is not confirmed: it was looked up by name or label, or the drawing left a doubt.", "data": [{"smiles": "CCCCCCCCCCCC(=O)NCCC[N+](C)(C)C/C=C\\C[N+](C)(C)CCCNC(=O)CCCCCCCCCCC.[Cl-].[Cl-]", "note": "[Surfactant 2]", "values": [{"measurement": "cmc (critical micelle concentration)", "value": "3 61 × 10^−4 mol L^−1"}]}]}
